No constants are given. Whether binding was seen depends on the method and setting. Some entries that bind do so weakly or less than the wild type.

Here are results for one molecule from publication PMC5069622, “Crystal structure of human aldehyde dehydrogenase 1A3 complexed with NAD^+ and retinoic acid” (Scientific Reports, 2016).

For the assay, the target named is human aldehyde dehydrogenase 1A3 (human) (UniProt P47895). Kind of assay: crystal structure; X-ray, 2.9 Å, space group P21, eight chains per asymmetric unit arranged as two independent tetramers; protein pre-incubated with 1 mM NAD+ and 1 mM retinoic acid, 20% PEG 3350, 0.24 M Na2 malonate pH 7.0, 10 mM TCEP, 20 °C; both purified.

B1: human aldehyde dehydrogenase 1A3 (enzyme, UniProt P47895 1-512, looked up)
chain: MATANGAVENGQPDRKPPALPRPIRNLEVKFTKIFINNEWHESKSGKKFATCNPSTREQICEVEEGDKPDVDKAVEAAQVAFQRGSPWRRLDALSRGRLLHQLADLVERDRATLAALETMDTGKPFLHAFFIDLEGCIRTLRYFAGWADKIQGKTIPTDDNVVCFTRHEPIGVCGAITPWNFPLLMLVWKLAPALCCGNTMVLKPAEQTPLTALYLGSLIKEAGFPPGVVNIVPGFGPTVGAAISSHPQINKIAFTGSTEVGKLVKEAASRSNLKRVTLELGGKNPCIVCADADLDLAVECAHQGVFFNQGQCCTAASRVFVEEQVYSEFVRRSVEYAKKRPVGDPFDVKTEQGPQIDQKQFDKILELIESGKKEGAKLECGGSAMEDKGLFIKPTVFSEVTDNMRIAKEEIFGPVQPILKFKSIEEVIKRANSTDYGLTAAVFTKNLDKALKLASALESGTVWINCYNALYAQAPFGGFKMSGNGRELGEYALAEYTEVKTVTIKLGDKNP
notes: human ALDH1A3, full-length open reading frame amplified from cDNA of the mesenchymal glioma stem cell line 83 and cloned into pDEST17; predicted molecular weight 56108 Da; Crystallised after pre-incubation with 1 mM NAD+ and 1 mM all-trans retinoic acid; No removal of the His tag is described; In the crystal no density for the N-terminal portion and the last four residues; also called ALDH1A3; …
With B1, the binding result is on record as “binds”.
